In patent US20040019926A1 (CROPDESIGN N V, published 2004):
These are yes or no findings as the source states them, for the method shown. Some binding calls cover weakened binding; strength is not graded here. Blank lines part the entries; values can stand above or below the binder they belong to.

By UniProt entry, the sequences of proteins in these tests, tags left out.
UniProt P29618: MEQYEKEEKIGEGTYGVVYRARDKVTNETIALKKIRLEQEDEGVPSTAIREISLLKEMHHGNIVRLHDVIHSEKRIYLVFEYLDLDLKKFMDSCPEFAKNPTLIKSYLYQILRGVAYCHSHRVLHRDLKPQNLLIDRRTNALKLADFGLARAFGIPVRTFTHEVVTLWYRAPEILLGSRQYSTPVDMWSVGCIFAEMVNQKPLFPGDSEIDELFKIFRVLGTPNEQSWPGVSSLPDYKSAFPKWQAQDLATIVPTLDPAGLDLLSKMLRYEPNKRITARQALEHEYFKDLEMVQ

Key:
[1] = molecular target: T1, rice cyclin-dependent kinase Cdc2-Os1 (rice, UniProt P29618 1-294); experiment: yeast two-hybrid, reciprocal orientation: OsICK2 bait (pBDGal4), Cdc2-Os1 prey (pADGal4)
T1 construct: The Gal4 parts are not written into the chain

[2] = molecular target: T1, rice cyclin-dependent kinase Cdc2-Os1; experiment: yeast two-hybrid, Cdc2-Os1 bait (pBDGal4), OsICK2 prey (pADGal4), growth on Leu-Trp-His- medium
[3] = molecular target: T1, rice cyclin-dependent kinase Cdc2-Os1; experiment: yeast two-hybrid library screen of Example 4, Cdc2-Os1 bait
[4] = molecular target: T1, rice cyclin-dependent kinase Cdc2-Os1; experiment: yeast two-hybrid library screen, Cdc2-Os1 bait (pBD-Gal4), growth on SD-TLH, SD-TLA and SD-TLAH

- binding [1]: binds
- binding [2]: binds
B1: full-length rice OsICK2 protein (protein)
chain: MGKYMRKFRGATGEELAAMEVTQVVGVRTRSRSAAAAGATTTKVQAASAASTRRRKALLPTAVVGTTRRDGGSCYLQLRSRMLFMAPPRPAPAARAPVVAEAAGSGNGAAAHAAAGLSRCSSTASSVDAAAQDRSLACRSDVAEAGSEHVPEGSASDSASGRDRERRETTPSSFLPGEVSDLESDLAGGQKRSRPLPSAATASAQQATRPKIPPAAEIEAFFAAAEEAEAKRFAAKYNFDVVRGVPLDAGRFEWTPVVSSRS

- binding [3]: binds
- binding [4]: binds
B2: partial OsICK4 clone obtained by two-hybrid screening (missing the 5' end) (protein)
chain: PRRRATAAAATADATATESAEAEVSFGGENVLELEAMERNTRETTPCSLIRDPDTISTPGSTTRRSHSSSHCKVQTPVRHNIIPASAELEAFFAAEEQRQRQAFIDKYNFDPVNDCPLPGRFEWVKLD
